The nature of this data set: Fmoc solid-phase peptide synthesis; preloaded Gly-Wang resin; HBTU. As to conditions: whole synthesis, reverse phase HPLC, scale 0.1 mmol.

On to [K]16GACRRETAWACG, for which the “crude HPLC purity” value is reported as “about 70%”.

The record behind these values is patent US20040014217A1 (priority 2000, published 2004).
